Results from patent US5721338A (California Institute of Technology, priority 1995, dated 1998).

Assay: general procedure: Fmoc solid-phase peptide synthesis; Pal-Peg-PS; DIPCDI/HOBT
Conditions: whole synthesis, scale 34 umol

Cyclo(Amb-Cys)-Thr-Val-Thr-Nph
isolated mass: approximately 1 mg
